According to publication PMC12188530 (RSC Advances, 2025):

Biological target: T1, S. aureus ATCC 43300 Sortase A (Staphylococcus aureus, UniProt Q2FV99)
T1 sequence (Q2FV99 60-206): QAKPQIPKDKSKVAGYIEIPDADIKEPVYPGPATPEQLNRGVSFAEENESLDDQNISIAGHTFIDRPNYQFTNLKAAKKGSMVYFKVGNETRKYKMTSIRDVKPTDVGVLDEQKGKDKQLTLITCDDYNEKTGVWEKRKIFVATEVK
Assay: Sortase A activity assay by FRET
Type: biochemical

CN1CCN(CCCN2c3ccccc3Sc3ccc(Cl)cc32)CC1 [Prochlorperazine dimaleate]
inhibition at 128 µg/mL: 47%
